PubChem BioAssay AID248 (DTP/NCI, 2004)
The list shows only some results of the screen, not a fair sample: its compounds were picked by chemical class. Other doses and runs of a compound may be missing. T/C is the treated group as % of the vehicle group. Where survival is the endpoint, this PubChem deposit counts one and a half times the control or more as active, and values a quarter to a half above the control carry no call in these data; other NCI protocols may use other cut-offs. Schedules are NCI's codes, taken here to give the interval after Q, in days (D) or hours (H), and the number of doses after X. Counts like (3×) give the number of equal values in this list. Some entries were tested several times; their values stand side by side, smallest first. Some schedules carry Z or #; the key to these is not given.

Tested on: L1210 leukemia ip in BDF1 mice, survival T/C
Experiment: NCI In Vivo Anticancer Drug Screen. Data for tumor model L1210 Leukemia (intraperitoneal) in B6D2F1 (BDF1) mice
Details: T/C endpoint: mean survival time, vehicle: saline, higher T/C = longer survival

## NCCNCCCl
dose: 2.5 mg/kg/injection, schedule: Q#A X034 (ip)
  T/C: 97 % of control
dose: 4.7 mg/kg/injection, schedule: Q01DX015 (ip)
  T/C: 115 % of control
dose: 5.0 mg/kg/injection, schedule: Q01DX017 (ip)
  T/C: 101 % of control
dose: 5.0 mg/kg/injection, schedule: Q02DX009 (ip)
  T/C: 96 % of control
dose: 5.0 mg/kg/injection, schedule: Q#A X034 (ip)
  T/C: 102 % of control
dose: 7.0 mg/kg/injection, schedule: Q01DX015 (ip)
  T/C: 112 % of control
dose: 9.37 mg/kg/injection, schedule: Q#A X034 (ip)
  T/C: 91 % of control
dose: 9.4 mg/kg/injection, schedule: Q01DX015 (ip)
  T/C: 95 % of control
dose: 10.0 mg/kg/injection, schedule: Q01DX017 (ip)
  T/C: 98 % of control
dose: 10.0 mg/kg/injection, schedule: Q02DX009 (ip)
  T/C: 97 % of control
dose: 10.0 mg/kg/injection, schedule: Q#A X034 (ip)
  T/C: 100 % of control
dose: 14.0 mg/kg/injection, schedule: Q01DX015 (ip)
  T/C: 125 % of control
dose: 16.0 mg/kg/injection, schedule: Q01DX001 (ip)
  T/C: 108 % of control
dose: 18.0 mg/kg/injection, schedule: Q01DX015 (ip)
  T/C: 140 % of control
dose: 18.75 mg/kg/injection, schedule: Q01DX017 (ip)
  T/C: 94 % of control
dose: 18.75 mg/kg/injection, schedule: Q02DX009 (ip)
  T/C: 95 % of control
dose: 18.75 mg/kg/injection, schedule: Q#A X034 (ip)
  T/C: 92 % of control
dose: 18.8 mg/kg/injection, schedule: Q01DX015 (ip)
  T/C: 140 % of control
dose: 20.0 mg/kg/injection, schedule: Q01DX017 (ip)
  T/C: 104 % of control
dose: 20.0 mg/kg/injection, schedule: Q02DX009 (ip)
  T/C: 97 % of control
dose: 20.0 mg/kg/injection, schedule: Q#A X034 (ip)
  T/C: 97 % of control
dose: 28.0 mg/kg/injection, schedule: Q01DX015 (ip)
  T/C: 147 % of control
dose: 31.0 mg/kg/injection, schedule: Q01DX001 (ip)
  T/C: 114 % of control
dose: 37.0 mg/kg/injection, schedule: Q01DX015 (ip)
  T/C: 180 % of control
dose: 37.5 mg/kg/injection, schedule: Q01DX005 (ip)
  T/C: 89 % of control
dose: 37.5 mg/kg/injection, schedule: Q01DX015 (ip)
  T/C: 176 % of control
dose: 37.5 mg/kg/injection, schedule: Q01DX017 (ip)
  T/C: 93 % of control
dose: 37.5 mg/kg/injection, schedule: Q02DX009 (ip)
  T/C: 92 % of control
dose: 37.5 mg/kg/injection, schedule: Q04DX005 (ip)
  T/C: 95 % of control
dose: 37.5 mg/kg/injection, schedule: Q#A X034 (ip)
  T/C: 93 % of control
dose: 40.0 mg/kg/injection, schedule: Q01DX017 (ip)
  T/C: 100 % of control
dose: 40.0 mg/kg/injection, schedule: Q02DX009 (ip)
  T/C: 101 % of control
dose: 40.0 mg/kg/injection, schedule: Q#A X034 (ip)
  T/C: 100 % of control
dose: 56.25 mg/kg/injection, schedule: Q01DX015 (ip)
  T/C: 197 % of control
dose: 62.0 mg/kg/injection, schedule: Q01DX001 (ip)
  T/C: 130 % of control
dose: 75.0 mg/kg/injection, schedule: Q01DX001 (ip)
  T/C: 96 % of control
dose: 75.0 mg/kg/injection, schedule: Q01DX005 (ip)
  T/C: 93 % of control
dose: 75.0 mg/kg/injection, schedule: Q01DX015 (ip)
  T/C: 110 and 273 % of control
dose: 75.0 mg/kg/injection, schedule: Q01DX017 (ip)
  T/C: 94, 100, 101 % of control
dose: 75.0 mg/kg/injection, schedule: Q02DX009 (ip)
  T/C: 92 and 100 % of control
dose: 75.0 mg/kg/injection, schedule: Q04DX005 (ip)
  T/C: 90 % of control
dose: 75.0 mg/kg/injection, schedule: Q#A X034 (ip)
  T/C: 92 % of control
dose: 80.0 mg/kg/injection, schedule: Q01DX017 (ip)
  T/C: 105 % of control
dose: 80.0 mg/kg/injection, schedule: Q02DX009 (ip)
  T/C: 98 % of control
dose: 80.0 mg/kg/injection, schedule: Q#A X034 (ip)
  T/C: 108 % of control
dose: 100.0 mg/kg/injection, schedule: Q01DX001 (ip)
  T/C: 102 % of control
dose: 112.5 mg/kg/injection, schedule: Q01DX015 (ip)
  T/C: 141 % of control
dose: 125.0 mg/kg/injection, schedule: Q01DX001 (ip)
  T/C: 141, 151, 187 % of control
dose: 150.0 mg/kg/injection, schedule: Q01DX001 (ip)
  T/C: 97 % of control
dose: 150.0 mg/kg/injection, schedule: Q01DX005 (ip)
  T/C: 92 and 96 % of control
dose: 150.0 mg/kg/injection, schedule: Q01DX015 (ip)
  T/C: 89 % of control
dose: 150.0 mg/kg/injection, schedule: Q01DX017 (ip)
  T/C: 93 and 100 % of control (2×)
dose: 150.0 mg/kg/injection, schedule: Q02DX009 (ip)
  T/C: 93 and 102 % of control
dose: 150.0 mg/kg/injection, schedule: Q04DX005 (ip)
  T/C: 96 and 100 % of control
dose: 160.0 mg/kg/injection, schedule: Q01DX017 (ip)
  T/C: 114 % of control
dose: 160.0 mg/kg/injection, schedule: Q02DX009 (ip)
  T/C: 105 % of control
dose: 200.0 mg/kg/injection, schedule: Q01DX001 (ip)
  T/C: 97 % of control
dose: 250.0 mg/kg/injection, schedule: Q01DX001 (ip)
  T/C: 164 % of control
dose: 300.0 mg/kg/injection, schedule: Q01DX001 (ip)
  T/C: 93 and 96 % of control
dose: 300.0 mg/kg/injection, schedule: Q01DX005 (ip)
  T/C: 97 and 110 % of control
dose: 300.0 mg/kg/injection, schedule: Q01DX017 (ip)
  T/C: 110 % of control (2×)
dose: 300.0 mg/kg/injection, schedule: Q02DX009 (ip)
  T/C: 103 % of control
dose: 300.0 mg/kg/injection, schedule: Q04DX005 (ip)
  T/C: 96 and 103 % of control
dose: 400.0 mg/kg/injection, schedule: Q01DX001 (ip)
  T/C: 97 % of control
dose: 500.0 mg/kg/injection, schedule: Q01DX001 (ip)
  T/C: 86 % of control
dose: 600.0 mg/kg/injection, schedule: Q01DX001 (ip)
  T/C: 96, 98, 103 % of control
dose: 600.0 mg/kg/injection, schedule: Q01DX005 (ip)
  T/C: 108 % of control
dose: 600.0 mg/kg/injection, schedule: Q01DX017 (ip)
  T/C: 100 % of control
dose: 600.0 mg/kg/injection, schedule: Q02DX009 (ip)
  T/C: 102 % of control
dose: 600.0 mg/kg/injection, schedule: Q04DX005 (ip)
  T/C: 98 % of control
dose: 800.0 mg/kg/injection, schedule: Q01DX001 (ip)
  T/C: 103 % of control
dose: 1200.0 mg/kg/injection, schedule: Q01DX001 (ip)
  T/C: 98 % of control
